Measurements: publication doi:10.1101/2021.06.21.449265 (bioRxiv, 2021)
Results are given in words; binding and its absence hold for the method and conditions named. Some binding calls cover weakened binding; strength is not graded here.

T1: Fy-2 CΔ53 (human) (UniProt Q6ZMI0)
T1 sequence: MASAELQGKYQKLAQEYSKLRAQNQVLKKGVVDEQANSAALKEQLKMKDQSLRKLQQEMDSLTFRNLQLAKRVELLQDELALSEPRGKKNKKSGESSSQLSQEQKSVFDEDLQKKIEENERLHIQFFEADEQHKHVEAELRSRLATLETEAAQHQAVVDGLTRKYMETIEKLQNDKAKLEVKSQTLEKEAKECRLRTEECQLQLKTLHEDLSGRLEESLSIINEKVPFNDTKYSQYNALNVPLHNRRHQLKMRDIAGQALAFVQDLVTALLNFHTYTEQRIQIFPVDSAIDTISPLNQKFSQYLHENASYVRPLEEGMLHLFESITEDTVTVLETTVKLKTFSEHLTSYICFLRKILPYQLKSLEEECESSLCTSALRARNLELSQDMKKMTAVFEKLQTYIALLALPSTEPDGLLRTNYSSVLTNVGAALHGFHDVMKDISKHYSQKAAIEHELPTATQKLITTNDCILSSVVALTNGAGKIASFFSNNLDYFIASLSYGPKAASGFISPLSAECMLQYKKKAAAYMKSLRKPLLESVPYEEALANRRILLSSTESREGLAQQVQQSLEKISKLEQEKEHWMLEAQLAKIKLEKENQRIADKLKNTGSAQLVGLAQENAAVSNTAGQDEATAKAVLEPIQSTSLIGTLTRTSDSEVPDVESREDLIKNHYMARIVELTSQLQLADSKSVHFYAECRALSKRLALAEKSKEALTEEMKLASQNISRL

T2: Fy-2 CΔ84 (human) (UniProt Q6ZMI0)
T2 sequence: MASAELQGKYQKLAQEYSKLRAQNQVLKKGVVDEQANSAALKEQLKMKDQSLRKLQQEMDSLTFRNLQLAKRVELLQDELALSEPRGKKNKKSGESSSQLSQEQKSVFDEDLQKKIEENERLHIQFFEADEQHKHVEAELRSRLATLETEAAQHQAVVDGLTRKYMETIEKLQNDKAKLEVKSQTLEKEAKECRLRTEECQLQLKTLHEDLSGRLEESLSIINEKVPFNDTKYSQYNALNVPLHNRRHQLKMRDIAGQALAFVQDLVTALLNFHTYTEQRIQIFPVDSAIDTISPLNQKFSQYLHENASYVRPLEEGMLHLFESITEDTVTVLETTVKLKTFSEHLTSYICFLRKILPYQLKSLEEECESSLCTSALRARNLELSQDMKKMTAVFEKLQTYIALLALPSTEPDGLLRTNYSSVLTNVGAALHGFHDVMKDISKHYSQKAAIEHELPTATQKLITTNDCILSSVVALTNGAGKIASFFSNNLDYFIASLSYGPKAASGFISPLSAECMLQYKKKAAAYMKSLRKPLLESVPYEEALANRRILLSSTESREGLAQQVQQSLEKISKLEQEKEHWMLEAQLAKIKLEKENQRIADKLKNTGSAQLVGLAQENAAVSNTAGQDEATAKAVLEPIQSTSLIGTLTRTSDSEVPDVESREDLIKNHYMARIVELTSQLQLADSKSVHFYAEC


Tests used:
Fy-2 CΔ53 (human) = molecular target: T1, Fy-2 CΔ53 (human); assay: reconstitution and co-purification
Fy-2 CΔ84 (human) = molecular target: T2, Fy-2 CΔ84 (human); assay: reconstitution and co-purification

Row | Binder | binding (Fy-2 CΔ53 (human)) | binding (Fy-2 CΔ84 (human))
1 | Fy-3 (C12orf4) (natural protein, human, UniProt Q9NQ89 1-552, looked up) MKKNRERFCNREREFVYKFKVGSQCLELRVPLKFPVQENASHLHGRLMLLHSLPCFIEKDLKEALTQFIEEESLSDYDRDAEASLAAVKSGEVDLHQLASTWAKAYAETTLEHARPEEPSWDEDFADVYHDLIHSPASETLLNLEHNYFVSISELIGERDVELKKLRERQGIEMEKVMQELGKSLTDQDVNSLAAQHFESQQDLENKWSNELKQSTAIQKQEYQEWVIKLHQDLKNPNNSSLSEEIKVQPSQFRESVEAIGRIYEEQRKLEESFTIHLGAQLKTMHNLRLLRADMLDFCKHKRNHRSGVKLHRLQTALSLYSTSLCGLVLLVDNRINSYSGIKRDFATVCQECTDFHFPRIEEQLEVVQQVVLYARTQRRSKLKESLDSGNQNGGNDDKTKNAERNYLNVLPGEFYITRHSNLSEIHVAFHLCVDDHVKSGNITARDPAIMGLRNILKVCCTHDITTISIPLLLVHDMSEEMTIPWCLRRAELVFKCVKGFMMEMASWDGGISRTVQFLVPQSISEEMFYQLSNMLPQIFRVSSTLTLTSKH | binds | no binding
2 | Fy-4 (Cryzl1) (natural protein, human, UniProt O95825 1-349, looked up) MKGLYFQQSSTDEEITFVFQEKEDLPVTEDNFVKLQVKACALSQINTKLLAEMKMKKDLFPVGREIAGIVLDVGSKVSFFQPDDEVVGILPLDSEDPGLCEVVRVHEHYLVHKPEKVTWTEAAGSIRDGVRAYTALHYLSHLSPGKSVLIMDGASAFGTIAIQLAHHRGAKVISTACSLEDKQCLERFRPPIARVIDVSNGKVHVAESCLEETGGLGVDIVLDAGVRLYSKDDEPAVKLQLLPHKHDIITLLGVGGHWVTTEENLQLDPPDSHCLFLKGATLAFLNDEVWNLSNVQQGKYLCILKDVMEKLSTGVFRPQLDEPIPLYEAKVSMEAVQKNQGRKKQVVQF | binds | binds
